According to publication PMC7066184:
No constants are given. Whether binding was seen depends on the method and setting. Binding seen in cells or lysates may run through a third protein. Here binding means that the protein was enriched with, or labelled near, the bait; the list need not be complete.

Target: HA-tagged Ub^KEKS (human)
Test: affinity purification with mass spectrometry; HA antibody (12CA5) immunoprecipitation from triple-SILAC HeLa cells (control, HA-Ub, HA-Ub^KEKS), on-bead trypsin digestion; lysis in high-salt buffer or in denaturing buffer (2% SDS, 95 °C); which of the two gave the hits of Fig. 3 is not told

B1: RNF138 (enzyme, UniProt Q8WVD3 1-245)
chain: MAEDLSAATSYTEDDFYCPVCQEVLKTPVRTTACQHVFCRKCFLTAMRESGAHCPLCRGNVTRRERACPERALDLENIMRKFSGSCRCCAKQIKFYRMRHHYKSCKKYQDEYGVSSIIPNFQISQDSVGNSNRSETSTSDNTETYQENTSSSGHPTFKCPLCQESNFTRQRLLDHCNSNHLFQIVPVTCPICVSLPWGDPSQITRNFVSHLNQRHQFDYGEFVNLQLDEETQYQTAVEESFQVNI
- binding: binds
